The record followed here is PubChem BioAssay AID2685 (National Center for Advancing Translational Sciences (NCATS), 2010).

SMILES strings stand for the structures. The list shows a part of the results. These are further read-outs of the screen, such as a control signal, another cell line or another target. No call is given for them. Most of these compounds were active or inconclusive in the main read-out, so they are no random draw. The note in brackets gives the kind of curve behind each potency; many fits are weak.

The assay is described as follows: qHTS Assay for Lipid Storage Modulators in Drosophila S3 Cells.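 On cell number change: cells counted by Cell Tracker Red CMTPX staining in the red channel.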 Conditions: BODIPY lipid droplet fluorescence, 18-24 h; for cell number change: measured here: cell count max response, cells fed with added oleic acid. An outline of the steps: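 Drosophila S3 cells loaded with oleic acid (400 uM, as added) and compounds at several concentrations; lipid droplets imaged by 488-nm laser-scanning cytometry, 500–530 nm intensity and object ratio to cell channel. Percent activity normalized to 20 uM Triacsin C.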
(In qHTS, concentration-response curves come from the screen itself.)

The mark [1] stands for this setting: measured here: lipid fluorescence (Fed channel) AC50, cells fed with added oleic acid.
Setting [2] is: measured here: cell number channel AC50, cells fed with added oleic acid.

As to `Cc1ccc(CNC(=O)C2CCC(=O)N(CCc3ccc(Cl)cc3)C2)s1` (stereo unspecified), the cell number change worked out at 13.9%.

Broadly, the AC50 is the concentration at which the activity in the assay is half-maximal. Consider `CCOc1ccc(NC(=O)c2cccc(NC(=O)c3ccccc3)c2)cc1`, for which the cell number change came to 24.9%. Moreover, under setting [1], the AC50 is 23.1 µM [falling, single point].

With `COCc1cc(C)nc(OCC(=O)N/N=C/c2ccc(-c3cc([N+](=O)[O-])ccc3C)o2)c1C#N`, the AC50 under setting [2] was 0.731 µM [rising, single point].

Consider `O=C(Nc1ccc(Cl)cc1F)C1CCN(S(=O)(=O)c2cccnc2)CC1`, for which the cell number change came out at 2.4%.

With `Fc1ccc(/C=N/NC(=S)Nc2ccc(Cl)cc2)cc1F`, the cell number change stood at 6.41%. For the same molecule, the AC50 under setting [1] is 6.51 µM [rising, single point].

`CCN(CC)S(=O)(=O)c1cc(C(=O)N(C)CC(=O)Nc2ccc(Cl)cc2)ccc1Cl`: the cell number change came to 27.2%. Under setting [1], the AC50 was 8.2 µM [rising, partial curve].

As for `CCCCn1c(N)c(N(CCOC)C(=O)CSc2n[nH]c(-c3ccc(OC)cc3)n2)c(=O)[nH]c1=O`, the cell number change is 25.8%.

`CN(Cc1ccccc1)C(=O)c1ccc(NC(=O)Cc2cccc(NC(=O)C3CCN(C(=O)C4CCC4)CC3)c2)cc1`: the cell number change was 0.798%.

With `O=C(CSc1nnc(C2COc3ccccc3O2)o1)Nc1ccc(F)cc1Cl` (stereo unspecified), the cell number change amounted to 17.2%. For the same molecule, under setting [2], the AC50 was 0.326 µM [rising, full curve]. Also, under setting [1], the AC50 was 0.92 µM [rising, full curve].

On to `Clc1ccc(C#Cc2cccnc2)cc1`, for which the cell number change is -33.4%. For the same molecule, under setting [2], the AC50 was 16.4 µM [falling, single point].

Consider `N#C/C(=C\c1c(F)cccc1Cl)C(=O)NC1CC1`, for which the cell number change is 2.7%. The AC50 under setting [1] was 6.51 µM [falling, single point].

In the case of `Fc1ccccc1CNc1ncnc2sccc12`, the cell number change turned out to be 24.3%.

In the case of `O=C(COC(=O)c1ccc(F)c(S(=O)(=O)N2CCOCC2)c1)Nc1ccc2[nH]c(=O)[nH]c2c1`, the cell number change was -4.65%.

Take `CC(=O)N1CCN(C(=S)NC(=O)c2ccc(S(=O)(=O)N3CCOCC3)cc2)CC1`: the cell number change was -33.3%. Besides, the half-maximal activity concentration (AC50) under setting [2] was 0.82 µM [falling, full curve, poor fit]. Further, the AC50 under setting [1] was 0.92 µM [rising, partial curve, poor fit].

Take `O=C(CS(=O)CC(=O)Nc1cnc2ccccc2c1)Nc1ccc(Cl)cc1` (stereo unspecified): the cell number change is 25.2%. Moreover, under setting [2], the AC50 is 0.231 µM [rising, full curve, poor fit].

On to `COc1ccc(CC(=O)NCc2ccc3c(c2)OCO3)cc1`, for which the cell number change is 24.7%. In addition, the AC50 under setting [1] was 0.0058 µM [rising, full curve, poor fit].

`Nc1ccc(Br)c2c1C(=O)c1ccccc1C2=O`: the cell number change is -36%. Also, the AC50 under setting [2] is 18.4 µM [falling, partial curve]. For the same molecule, the AC50 under setting [1] is 29.1 µM [falling, single point].

As for `COc1ccc(C=O)cc1COc1ccc2c(c1)OCO2`, the cell number change worked out at 2.49%. Besides, the AC50 under setting [1] was 0.00517 µM [rising, full curve, poor fit].

With `CCCn1c(=O)c2ccccc2n2c(SCC(=O)c3ccc(CC)cc3)nnc12`, the cell number change came out at 17.9%. Also, the AC50 under setting [1] was 4.61 µM [rising, partial curve, poor fit].

For `CN(CC(=O)Nc1ccccc1Br)C(=O)c1cc2c(s1)CCCCC2`, the cell number change was found to be 26.8%.

Consider `Cc1nn(CC(=O)O)c(=O)c2ccccc12`, for which the AC50 under setting [1] was 16.4 µM [falling, partial curve].

In the case of `C/C(CC(=O)Nc1ccc(Cl)cn1)=N\NC(=O)Cc1cccs1`, the cell number change was 8.54%. Moreover, under setting [1], the AC50 is 4.61 µM [falling, single point].

Consider `CC(=O)N1[C@H](Cc2ccccc2)C=C[C@]1(C)C(=O)NCCc1c[nH]c2ccccc12`, for which the cell number change is 20.5%. Besides, under setting [1], the AC50 is 9.2 µM [rising, partial curve, poor fit].

Consider `COc1ccc2[nH]c(C(=O)N3CCN(Cc4ccccc4)CC3)cc2c1OC`, for which the cell number change is -0.59%.

For the molecule `C=CCN1C(=O)C(C)(C)N(C(C)=O)c2ccccc21`, the cell number change was -5.28%. In addition, under setting [1], the AC50 is 29.1 µM [falling, single point].

`COc1ccc2ccn(C)c2c1`: the cell number change came to 2.03%. For the same molecule, under setting [1], the AC50 was 9.2 µM [rising, single point].

`COc1cc(OC)c(C2=NOC(C(=O)NCc3ccc4c(c3)OCO4)C2)cc1Cl` (stereo unspecified): the cell number change is 152%. For the same molecule, under setting [2], the AC50 is 9.2 µM [rising, partial curve]. Further, under setting [1], the AC50 is 18.4 µM [rising, partial curve].

For `COc1ccc(NC(=O)CC2SC(=NCc3ccccc3OC)NC2=O)cc1` (stereo unspecified), the cell number change is -11.4%.

As to `O=C(NNc1nc(-c2ccccc2)c2cc(Br)ccc2n1)c1ccc(S(=O)(=O)N2CCOCC2)cc1`, the cell number change came out at 21.2%.

On to `CN(Cc1cccc(Cl)c1Cl)c1ccc(S(=O)(=O)N2CCCCC2)cc1[N+](=O)[O-]`, for which the cell number change was -6.36%. Further, under setting [1], the AC50 was 13 µM [rising, partial curve].

Consider `C=CCn1c(SCc2c(C)noc2C)nc2sc(C)c(C)c2c1=O`, for which the cell number change worked out at 176%. The AC50 under setting [2] is 4.61 µM [rising, full curve]. Under setting [1], the AC50 was 20.6 µM [rising, partial curve].

On to `CCOc1ccc(-n2c(SCC(=O)Nc3cc(C)on3)nnc2-c2c[nH]c3ccccc23)cc1`, for which the cell number change turned out to be 84.4%. Besides, under setting [2], the AC50 is 2.31 µM [rising, full curve]. Besides, the AC50 under setting [1] was 4.11 µM [rising, partial curve].

As for `O=[N+]([O-])c1ccc(N2CCN(c3ccc(O)cc3)CC2)c(Cl)c1`, the cell number change is -18.3%. Also, the AC50 under setting [1] is 2.59 µM [falling, full curve].

For `CCn1c(-c2ccc(C(C)(C)C)cc2)n[nH]c1=S`, the cell number change was determined as 12.9%. Also, the AC50 under setting [1] is 29.1 µM [rising, single point].

As to `O=C(NCc1ccccn1)c1ccccc1OCc1ccc(F)cc1`, the cell number change was -2.41%.

Regarding `COc1ccc(NC(=O)CN(C)C(=O)Cc2c[nH]c3ccccc23)cc1`, the cell number change was 0.995%. Also, under setting [2], the AC50 was 0.82 µM [falling, full curve, poor fit]. Under setting [1], the AC50 was 14.6 µM [falling, partial curve].

For `COCc1cc(=O)[nH]c(/N=C(\N)Nc2ccc(Oc3ccccc3)cc2)n1`, the cell number change is -18.8%. For the same molecule, the AC50 under setting [1] is 6.51 µM [falling, full curve, poor fit].

As for `C=CCOc1c(OC)cc(Cl)cc1C1NC(=O)NC(C)=C1C(C)=O` (stereo unspecified), the cell number change turned out to be 2.93%. Moreover, the AC50 under setting [1] is 6.51 µM [rising, single point].

Take `O=C(O)CCNC(=O)OCC1c2ccccc2-c2ccccc21`: the cell number change was -13%. Moreover, the AC50 under setting [1] was 0.517 µM [falling, full curve, poor fit].

`COc1cccc(-c2nnc(-c3ccco3)o2)c1`: the cell number change was -11.8%.

Take `COCCCNS(=O)(=O)c1ccc2c(c1)CCN2C(C)=O`: the cell number change stood at 0.748%. Moreover, the AC50 under setting [1] was 0.517 µM [falling, single point].

For `COc1cccc(-c2[nH]nc3c2C(c2ccc(C)o2)C(C#N)=C(N)O3)c1` (stereo unspecified), the cell number change was -52%. Further, the AC50 under setting [2] was 14.6 µM [falling, partial curve, poor fit].

Consider `Cc1nnc(SCC(=O)NC2CCCCC2)[nH]c1=O`, for which the cell number change was -11.8%.

Regarding `O=C(CC1OCC2CCCN2C1=O)Nc1ccc([N+](=O)[O-])cc1` (stereo unspecified), the cell number change was found to be 2.1%.

Turning to `O=C(NCc1ccc(Cl)cc1)c1n[nH]c([N+](=O)[O-])c1Cl`, the cell number change is 24.8%. Besides, the AC50 under setting [2] is 3.26 µM [falling, single point].

As to `Oc1c(C(c2ccc(Cl)cc2)N2CCCC2)cc(Cl)c2cccnc12` (stereo unspecified), the AC50 under setting [1] is 0.58 µM [rising, single point].

Take `O=C(Nc1cc(Cl)cc(Cl)c1)c1cnn2cccnc12`: the cell number change was determined as 46.7%. Further, the AC50 under setting [2] was 0.146 µM [rising, full curve]. Further, the AC50 under setting [1] was 2.59 µM [rising, partial curve, poor fit].

With `COc1cc(/C=C2\C(=N)N3N=CSC3=NC2=O)cc(Br)c1OC(=O)c1ccco1`, the cell number change was 8.36%. Besides, under setting [2], the AC50 was 0.146 µM [falling, full curve, poor fit].

Regarding `CCn1c(SCC(=O)N2CCN(c3ccccc3)CC2)nnc1-c1ccoc1C`, the cell number change is 28%. In addition, the AC50 under setting [1] is 0.231 µM [falling, full curve].

For `O=C(c1ccc(Cl)s1)N1CCN(c2nc3ccccc3s2)CC1`, the cell number change is -0.187%. Further, the AC50 under setting [1] is 18.4 µM [falling, single point].

Consider `COC(=O)C1C(=O)c2c([nH]c(C(=O)OCCOC(C)C)c2C)CC1C` (stereo unspecified), for which the cell number change was found to be 62.5%. Under setting [2], the AC50 was 7.31 µM [rising, partial curve]. Moreover, the AC50 under setting [1] was 1.46 µM [rising, full curve].

As to `O=c1c2ccccc2c2ccccc2c(=O)n1Cc1ccco1`, the cell number change is 0.339%.

For `CC1C/C(=N/Nc2nc3ccccc3[nH]2)CC(C)(C)C1` (stereo unspecified), the cell number change was -24.8%.

As to `Cc1cccc(C)c1Nc1nnc(SCC(=O)Nc2sccc2C#N)s1`, the cell number change amounted to 5.55%. The AC50 under setting [1] was 20.6 µM [rising, partial curve].

With `O=C(O)C1C2C=CC3(CN(Cc4ccco4)C(=O)C13)O2` (stereo unspecified), the cell number change was 33.3%. Moreover, the AC50 under setting [1] was 4.11 µM [rising, single point].

Take `Cc1cc(C)cc(NC(=O)c2ccc(CN3CCc4ccccc4C3)cc2)c1`: the cell number change was -13.4%.

Turning to `CCOC(=O)C1CCN(S(=O)(=O)c2ccc3c4c2CC(=O)N4CC(C)S3)CC1` (stereo unspecified), the cell number change turned out to be 7.49%. Besides, the AC50 under setting [2] was 1.46 µM [rising, partial curve, poor fit].

Consider `CCOC(=O)COc1ccc(C(=O)NC2CCCCC2)cc1`, for which the cell number change is -191%. For the same molecule, under setting [2], the AC50 is 5.8 µM [falling, full curve]. Further, under setting [1], the AC50 was 3.66 µM [falling, full curve].

With `Cc1ccc(C(=O)N/C(=C\c2ccco2)C(=O)NCCCn2ccnc2)cc1C`, the AC50 reads like this: under setting [2], 2.91 µM [rising, single point]; under setting [1], 3.26 µM [rising, single point].

Turning to `CC(=O)c1ccc(C)cc1OC(=O)c1cccc(F)c1`, the cell number change was -13.2%. Further, under setting [2], the AC50 was 2.31 µM [falling, single point].

Take `COc1ccc(C(CC(=O)Nc2ccc(C)cn2)N2Cc3ccccc3C2=O)cc1` (stereo unspecified): the AC50 under setting [1] was 0.651 µM [rising, single point].

For `COc1ccc2oc(C)c(C(=O)c3ccc(C)cc3)c2c1`, the cell number change came out at 7.8%.

Turning to `Cc1ccc(NC2c3ncccc3C(=O)N2Cc2cccs2)cc1C` (stereo unspecified), the cell number change was -22.7%. Further, the AC50 under setting [1] is 29.1 µM [falling, single point].

For the molecule `CCOC(=O)C1CCCN(C(=O)c2c(-c3ccccc3Cl)noc2C)C1` (stereo unspecified), the cell number change amounted to 59%. Under setting [2], the AC50 was 16.4 µM [rising, single point].
